{"source": "patent US20230348376A1", "about": "(TEIJIN PHARMA LIMITED, priority 2020, published 2023)", "test_system": "rat oligodendrocyte progenitor cells", "assay": "Promotive activity of rat oligodendrocyte progenitor cell differentiation-2 (immunostaining of MBP)", "assay_type": "cell-based", "conditions": "vitamin D derivative 2 μM, T3 30 nM", "experimental": "The promotive activity of oligodendrocyte progenitor cell (OPC) differentiation of the vitamin D derivatives was evaluated by immunostaining of MBP.\nSubsequently, oligodendrocyte progenitor cell separation medium was added to the flask, and the mixture was similarly shaken for about 22 hours (37° C., 200 rpm), and the supernatant was collected to prepare oligodendrocyte progenitor cells.", "data": [{"smiles": "C[C@H](CN1CCOC[C@H]1C)[C@H]1CC[C@H]2/C(=C/C=C3C[C@@H](O)C[C@H](O)C3)CCC[C@]12C", "note": "[Compound G005, (1R,3R)-5-(2-((1R,3aS,7aR,E)-7a-methyl-1-((S)-1-((R)-3-methylmorpholino)propan-2-yl)octahydro-4H-inden-4-ylidene)ethylidene)cyclohexane-1,3-diol]", "values": [{"measurement": "Significant difference (t-test vs DMSO group)", "setting": "Test 3", "value": "**** (<0.0001)"}]}, {"smiles": "C=C1[C@H](O)CC(=C/C=C2\\CCC[C@]3(C)[C@@H]([C@H](C)CN4CC[C@@H](CC(F)F)C4)CC[C@@H]23)C[C@H]1O", "note": "[Compound B041, (1R,3R)-5-(2-((1R,3aS,7aR,E)-1-((S)-1-((S)-3-(2,2-difluoroethyl)pyrrolidin-1-yl)propan-2-yl)-7a-methyloctahydro-4H-inden-4-ylidene)ethylidene)-2-methylenecyclohexane-1,3-diol]", "values": [{"measurement": "Significant difference (t-test vs DMSO group)", "setting": "Test 1", "value": "**** (<0.0001)"}]}, {"smiles": "C=C1/C(=C\\C=C2/CCC[C@]3(C)[C@@H]([C@H](C)CN4CCOC[C@H]4C)CC[C@@H]23)C[C@@H](O)C[C@H]1O", "note": "[Compound I005, (1R,3R,Z)-5-(2-((1R,3aS,7aR,E)-7a-methyl-1-((S)-1-((R)-3-methylmorpholino)propan-2-yl)octahydro-4H-inden-4-ylidene)ethylidene)-4-methylenecyclohexane-1,3-diol]", "values": [{"measurement": "Significant difference (t-test vs DMSO group)", "setting": "Test 4", "value": "**** (<0.0001)"}]}, {"smiles": "C=C1[C@H](O)CC(=C/C=C2\\CCC[C@]3(C)[C@@H]([C@H](C)CN4CCC[C@H]4C(C)(C)O)CC[C@@H]23)C[C@H]1O", "note": "[Compound H014, (1R,3R)-5-(2-((1R,3aS,7aR,E)-1-((S)-1-((S)-2-(2-hydroxypropan-2-yl)pyrrolidin-1-yl)propan-2-yl)-7a-methyloctahydro-4H-inden-4-ylidene)ethylidene)-2-methylenecyclohexane-1,3-diol]", "values": [{"measurement": "Significant difference (t-test vs DMSO group)", "setting": "Test 8", "value": "**** (<0.0001)"}]}, {"smiles": "C=C1[C@H](O)CC(=C/C=C2\\CCC[C@]3(C)[C@@H]([C@H](C)CN4CCN(C)C[C@H]4C)CC[C@@H]23)C[C@H]1O", "note": "[Compound H012, (1R,3R)-5-(2-((1R,3aS,7aR,E)-1-((S)-1-((R)-2,4-dimethylpiperazin-1-yl)propan-2-yl)-7a-methyloctahydro-4H-inden-4-ylidene)ethylidene)-2-methylenecyclohexane-1,3-diol]", "values": [{"measurement": "Significant difference (t-test vs DMSO group)", "setting": "Test 7", "value": "** (<0.01)"}]}, {"smiles": "C=C1/C(=C\\C=C2/CCC[C@]3(C)[C@@H]([C@H](C)CN4CC[C@H](C(C)(F)F)C4)CC[C@@H]23)C[C@@H](O)[C@H](C)[C@@H]1O", "note": "[Compound B029, (1R,2S,3S,Z)-5-(2-((1R,3aS,7aR,E)-1-((S)-1-((S)-3-(1,1-difluoroethyl)pyrrolidin-1-yl)propan-2-yl)-7a-methyloctahydro-4H-inden-4-ylidene)ethylidene)-2-methyl-4-methylenecyclohexane-1,3-diol]", "values": [{"measurement": "Significant difference (t-test vs DMSO group)", "setting": "Test 1", "value": "**** (<0.0001)"}]}, {"smiles": "C=C1/C(=C\\C=C2/CCC[C@]3(C)[C@@H]([C@H](C)CN4CCOCC4(C)C)CC[C@@H]23)C[C@@H](O)C[C@@H]1O", "note": "[Compound F006, (1R,3S,Z)-5-(2-((1R,3aS,7aR,E)-1-((S)-1-(3,3-dimethylmorpholino)propan-2-yl)-7a-methyloctahydro-4H-inden-4-ylidene)ethylidene)-4-methylenecyclohexane-1,3-diol]", "values": [{"measurement": "Significant difference (t-test vs DMSO group)", "setting": "Test 4", "value": "**** (<0.0001)"}]}, {"smiles": "C[C@H](CN1CC[C@H](CC(F)F)C1)[C@H]1CC[C@H]2/C(=C/C=C3C[C@@H](O)C[C@H](O)C3)CCC[C@]12C", "note": "[Compound B042, (1R,3R)-5-(2-((1R,3aS,7aR,E)-1-((S)-1-((R)-3-(2,2-difluoroethyl)pyrrolidin-1-yl)propan-2-yl)-7a-methyloctahydro-4H-inden-4-ylidene)ethylidene)cyclohexane-1,3-diol]", "values": [{"measurement": "Significant difference (t-test vs DMSO group)", "setting": "Test 1", "value": "**** (<0.0001)"}, {"measurement": "Significant difference (t-test vs DMSO group)", "setting": "Test 2", "value": "**** (<0.0001)"}]}, {"smiles": "C=C1[C@H](O)CC(=C/C=C2\\CCC[C@]3(C)[C@@H]([C@H](C)CN4CC[C@H](OCC(F)F)C4)CC[C@@H]23)C[C@H]1O", "note": "[Compound B055, (1R,3R)-5-(2-((1R,3aS,7aR,E)-1-((S)-1-((S)-3-(2,2-difluoroethoxy)pyrrolidin-1-yl)propan-2-yl)-7a-methyloctahydro-4H-inden-4-ylidene)ethylidene)-2-methylenecyclohexane-1,3-diol]", "values": [{"measurement": "Significant difference (t-test vs DMSO group)", "setting": "Test 2", "value": "**** (<0.0001)"}]}, {"smiles": "C=C1[C@H](O)CC(=C/C=C2\\CCC[C@]3(C)[C@@H]([C@H](C)CN4CC[C@@H](C(F)F)C4)CC[C@@H]23)C[C@H]1O", "note": "[Compound B027, (1R,3R)-5-(2-((1R,3aS,7aR,E)-1-((S)-1-((R)-3-(difluoromethyl)pyrrolidin-1-yl)propan-2-yl)-7a-methyloctahydro-4H-inden-4-ylidene)ethylidene)-2-methylenecyclohexane-1,3-diol]", "values": [{"measurement": "Significant difference (t-test vs DMSO group)", "setting": "Test 1", "value": "**** (<0.0001)"}]}, {"smiles": "C=C1[C@H](O)CC(=C/C=C2\\CCC[C@]3(C)[C@@H]([C@H](C)CCN4CCOCC4)CC[C@@H]23)C[C@H]1O", "note": "[Compound D024, (1R,3R)-5-(2-((1R,3aS,7aR,E)-7a-methyl-1-((R)-4-morpholinobutan-2-yl)octahydro-4H-inden-4-ylidene)ethylidene)-2-methylenecyclohexane-1,3-diol]", "values": [{"measurement": "Significant difference (t-test vs DMSO group)", "setting": "Test 2", "value": "**** (<0.0001)"}]}, {"smiles": "C=C1/C(=C\\C=C2/CCC[C@]3(C)[C@@H]([C@H](C)CN4CCCCC4(C)C)CC[C@@H]23)C[C@@H](O)C[C@H]1O", "note": "[Compound I003, (1R,3R,Z)-5-(2-((1R,3aS,7aR,E)-1-((S)-1-(2,2-dimethylpiperidin-1-yl)propan-2-yl)-7a-methyloctahydro-4H-inden-4-ylidene)ethylidene)-4-methylenecyclohexane-1,3-diol]", "values": [{"measurement": "Significant difference (t-test vs DMSO group)", "setting": "Test 9", "value": "**** (<0.0001)"}]}, {"smiles": "C=C1/C(=C\\C=C2/CCC[C@]3(C)[C@@H]([C@H](C)CN4CC[C@@H](C(F)F)C4)CC[C@@H]23)C[C@@H](O)C[C@@H]1O", "note": "[Compound B024, (1R,3 S,Z)-5-(2-((1R,3aS,7aR,E)-1-((S)-1-((R)-3-(difluoromethyl)pyrrolidin-1-yl)propan-2-yl)-7a-methyloctahydro-4H-inden-4-ylidene)ethylidene)-4-methylenecyclohexane-1,3-diol]", "values": [{"measurement": "Significant difference (t-test vs DMSO group)", "setting": "Test 1", "value": "**** (<0.0001)"}]}, {"smiles": "C=C1/C(=C\\C=C2/CCC[C@]3(C)[C@@H]([C@H](C)CN4CCOC[C@@H]4C)CC[C@@H]23)C[C@@H](O)C[C@H]1O", "note": "[Compound I004, (1R,3R,Z)-5-(2-((1R,3aS,7aR,E)-7a-methyl-1-((S)-1-((S)-3-methylmorpholino)propan-2-yl)octahydro-4H-inden-4-ylidene)ethylidene)-4-methylenecyclohexane-1,3-diol]", "values": [{"measurement": "Significant difference (t-test vs DMSO group)", "setting": "Test 4", "value": "**** (<0.0001)"}]}, {"smiles": "C=C1/C(=C\\C=C2/CCC[C@]3(C)[C@@H]([C@H](C)CN4CCCCC4(C)C)CC[C@@H]23)C[C@@H](O)C[C@@H]1O", "note": "[Compound F003, (1R,3S,Z)-5-(2-((1R,3aS,7aR,E)-1-((S)-1-(2,2-dimethylpiperidin-1-yl)propan-2-yl)-7a-methyloctahydro-4H-inden-4-ylidene)ethylidene)-4-methylenecyclohexane-1,3-diol]", "values": [{"measurement": "Significant difference (t-test vs DMSO group)", "setting": "Test 7", "value": "** (<0.01)"}]}]}
